Some of the results follow.

Chains of the proteins cited; added tags and fusions are not shown. Lines headed by an entry give the natural chain unless they say otherwise; changes in a name come on top.
UniProt Q9Y3A4: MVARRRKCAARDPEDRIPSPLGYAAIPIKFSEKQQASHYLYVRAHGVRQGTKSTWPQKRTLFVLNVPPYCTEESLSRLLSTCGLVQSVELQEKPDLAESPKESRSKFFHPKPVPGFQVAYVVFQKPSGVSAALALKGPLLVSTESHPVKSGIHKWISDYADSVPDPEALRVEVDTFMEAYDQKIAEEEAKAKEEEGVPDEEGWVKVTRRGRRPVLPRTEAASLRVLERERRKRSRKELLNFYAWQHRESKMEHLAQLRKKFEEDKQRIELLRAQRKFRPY
UniProt Q15050: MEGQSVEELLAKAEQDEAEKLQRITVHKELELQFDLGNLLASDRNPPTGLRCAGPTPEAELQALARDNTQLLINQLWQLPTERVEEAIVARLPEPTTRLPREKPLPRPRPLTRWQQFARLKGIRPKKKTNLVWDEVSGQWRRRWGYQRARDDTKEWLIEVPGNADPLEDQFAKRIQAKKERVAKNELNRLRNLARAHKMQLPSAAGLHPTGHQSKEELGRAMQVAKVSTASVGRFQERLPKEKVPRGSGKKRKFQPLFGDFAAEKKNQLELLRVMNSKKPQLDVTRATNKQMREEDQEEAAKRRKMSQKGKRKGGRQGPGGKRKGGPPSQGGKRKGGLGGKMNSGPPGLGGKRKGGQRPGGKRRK
UniProt Q6UVJ0: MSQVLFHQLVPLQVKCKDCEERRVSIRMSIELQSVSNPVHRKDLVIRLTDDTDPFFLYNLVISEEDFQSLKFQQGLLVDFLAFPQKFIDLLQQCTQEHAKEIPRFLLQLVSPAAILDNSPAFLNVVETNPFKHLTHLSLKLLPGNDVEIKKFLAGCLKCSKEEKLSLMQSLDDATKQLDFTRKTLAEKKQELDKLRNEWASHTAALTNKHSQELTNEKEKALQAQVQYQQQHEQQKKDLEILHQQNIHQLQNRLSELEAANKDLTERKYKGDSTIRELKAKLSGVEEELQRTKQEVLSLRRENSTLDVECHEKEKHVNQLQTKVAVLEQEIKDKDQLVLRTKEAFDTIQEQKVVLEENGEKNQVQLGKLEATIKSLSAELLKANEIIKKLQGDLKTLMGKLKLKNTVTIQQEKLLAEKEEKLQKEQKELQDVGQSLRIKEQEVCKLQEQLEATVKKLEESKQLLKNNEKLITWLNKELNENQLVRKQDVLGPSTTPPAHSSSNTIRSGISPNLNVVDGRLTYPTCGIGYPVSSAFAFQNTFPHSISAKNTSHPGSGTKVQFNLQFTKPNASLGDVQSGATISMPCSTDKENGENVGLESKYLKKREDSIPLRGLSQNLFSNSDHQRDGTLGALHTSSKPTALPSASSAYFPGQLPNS
UniProt P57060: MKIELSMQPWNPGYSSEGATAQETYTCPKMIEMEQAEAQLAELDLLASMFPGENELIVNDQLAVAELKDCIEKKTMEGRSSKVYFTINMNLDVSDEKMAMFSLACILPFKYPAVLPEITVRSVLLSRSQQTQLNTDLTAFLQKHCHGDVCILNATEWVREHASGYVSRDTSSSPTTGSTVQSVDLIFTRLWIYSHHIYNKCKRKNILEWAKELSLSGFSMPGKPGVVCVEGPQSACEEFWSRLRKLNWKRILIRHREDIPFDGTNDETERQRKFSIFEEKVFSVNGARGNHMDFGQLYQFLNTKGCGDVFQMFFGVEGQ
UniProt Q9Y265, whole entry: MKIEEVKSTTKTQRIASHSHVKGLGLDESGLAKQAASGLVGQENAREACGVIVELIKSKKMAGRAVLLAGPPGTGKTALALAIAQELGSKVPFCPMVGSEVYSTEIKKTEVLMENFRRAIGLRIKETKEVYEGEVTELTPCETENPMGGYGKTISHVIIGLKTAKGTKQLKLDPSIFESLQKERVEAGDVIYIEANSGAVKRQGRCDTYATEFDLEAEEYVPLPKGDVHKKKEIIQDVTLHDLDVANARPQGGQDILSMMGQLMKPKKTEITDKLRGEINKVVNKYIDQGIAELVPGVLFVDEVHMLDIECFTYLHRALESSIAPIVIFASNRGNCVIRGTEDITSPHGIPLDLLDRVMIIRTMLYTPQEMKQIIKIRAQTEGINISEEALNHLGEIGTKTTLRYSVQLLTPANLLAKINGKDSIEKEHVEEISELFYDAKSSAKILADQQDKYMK
UniProt Q969K3: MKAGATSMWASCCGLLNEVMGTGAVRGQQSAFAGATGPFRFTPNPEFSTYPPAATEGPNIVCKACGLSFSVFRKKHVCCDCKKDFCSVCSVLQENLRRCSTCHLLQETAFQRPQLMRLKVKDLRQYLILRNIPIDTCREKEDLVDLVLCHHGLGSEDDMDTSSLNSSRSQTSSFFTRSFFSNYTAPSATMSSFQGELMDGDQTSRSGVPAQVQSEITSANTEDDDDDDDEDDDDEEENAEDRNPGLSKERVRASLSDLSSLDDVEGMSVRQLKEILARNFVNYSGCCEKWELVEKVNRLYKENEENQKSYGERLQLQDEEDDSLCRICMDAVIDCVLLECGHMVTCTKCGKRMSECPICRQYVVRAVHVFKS
UniProt Q9HC36: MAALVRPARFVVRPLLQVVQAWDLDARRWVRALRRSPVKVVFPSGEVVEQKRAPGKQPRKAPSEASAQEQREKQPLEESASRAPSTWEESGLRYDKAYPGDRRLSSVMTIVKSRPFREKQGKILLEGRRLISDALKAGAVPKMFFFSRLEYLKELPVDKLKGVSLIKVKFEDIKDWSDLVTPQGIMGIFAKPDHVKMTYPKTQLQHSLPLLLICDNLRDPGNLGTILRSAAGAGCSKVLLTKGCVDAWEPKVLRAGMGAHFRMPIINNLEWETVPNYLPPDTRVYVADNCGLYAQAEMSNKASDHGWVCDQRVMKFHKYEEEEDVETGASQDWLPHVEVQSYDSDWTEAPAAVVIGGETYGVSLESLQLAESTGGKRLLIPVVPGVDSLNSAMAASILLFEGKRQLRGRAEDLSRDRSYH
UniProt Q9Y3B9: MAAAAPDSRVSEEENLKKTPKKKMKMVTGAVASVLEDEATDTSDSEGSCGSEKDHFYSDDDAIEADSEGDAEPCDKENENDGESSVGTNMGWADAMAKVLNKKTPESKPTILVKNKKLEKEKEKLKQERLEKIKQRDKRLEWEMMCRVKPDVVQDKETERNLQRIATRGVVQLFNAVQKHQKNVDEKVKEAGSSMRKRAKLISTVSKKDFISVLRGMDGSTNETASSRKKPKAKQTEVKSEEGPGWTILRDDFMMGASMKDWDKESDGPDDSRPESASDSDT
UniProt P53992: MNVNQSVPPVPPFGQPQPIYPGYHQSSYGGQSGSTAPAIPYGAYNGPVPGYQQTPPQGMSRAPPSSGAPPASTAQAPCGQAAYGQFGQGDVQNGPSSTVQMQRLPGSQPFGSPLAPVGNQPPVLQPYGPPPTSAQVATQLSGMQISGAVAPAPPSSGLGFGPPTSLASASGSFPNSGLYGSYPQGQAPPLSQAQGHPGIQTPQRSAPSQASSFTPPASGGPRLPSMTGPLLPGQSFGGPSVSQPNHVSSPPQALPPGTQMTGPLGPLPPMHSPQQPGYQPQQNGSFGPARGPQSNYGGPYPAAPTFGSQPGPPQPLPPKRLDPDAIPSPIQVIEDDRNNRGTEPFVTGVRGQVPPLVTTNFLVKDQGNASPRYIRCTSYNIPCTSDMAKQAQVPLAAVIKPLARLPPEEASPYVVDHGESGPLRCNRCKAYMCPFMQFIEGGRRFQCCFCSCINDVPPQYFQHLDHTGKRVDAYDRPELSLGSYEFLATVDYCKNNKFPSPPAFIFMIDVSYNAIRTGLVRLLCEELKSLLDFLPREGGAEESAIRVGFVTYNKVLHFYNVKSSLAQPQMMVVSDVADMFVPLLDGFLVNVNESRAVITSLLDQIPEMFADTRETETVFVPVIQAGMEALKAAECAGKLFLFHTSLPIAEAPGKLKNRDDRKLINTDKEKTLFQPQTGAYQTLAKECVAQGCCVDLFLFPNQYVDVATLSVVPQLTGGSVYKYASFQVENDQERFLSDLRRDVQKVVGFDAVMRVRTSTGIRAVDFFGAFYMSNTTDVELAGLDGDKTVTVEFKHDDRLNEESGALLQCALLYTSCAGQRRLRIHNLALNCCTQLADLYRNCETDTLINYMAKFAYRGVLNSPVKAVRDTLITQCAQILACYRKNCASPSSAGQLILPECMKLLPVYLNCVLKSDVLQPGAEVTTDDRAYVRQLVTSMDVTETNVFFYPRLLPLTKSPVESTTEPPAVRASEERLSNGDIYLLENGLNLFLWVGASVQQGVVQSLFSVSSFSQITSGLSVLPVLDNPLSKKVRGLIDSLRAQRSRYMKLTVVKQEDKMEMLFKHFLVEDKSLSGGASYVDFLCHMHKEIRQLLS
UniProt Q96P16: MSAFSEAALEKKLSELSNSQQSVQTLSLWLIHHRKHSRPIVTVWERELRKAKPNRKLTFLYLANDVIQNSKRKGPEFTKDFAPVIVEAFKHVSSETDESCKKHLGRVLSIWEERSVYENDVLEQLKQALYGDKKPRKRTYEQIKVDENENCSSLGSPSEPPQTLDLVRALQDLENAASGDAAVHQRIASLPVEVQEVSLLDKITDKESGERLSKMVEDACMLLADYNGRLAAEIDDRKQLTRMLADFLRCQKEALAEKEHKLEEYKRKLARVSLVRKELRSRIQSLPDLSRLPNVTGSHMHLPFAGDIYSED
UniProt P62341, whole entry: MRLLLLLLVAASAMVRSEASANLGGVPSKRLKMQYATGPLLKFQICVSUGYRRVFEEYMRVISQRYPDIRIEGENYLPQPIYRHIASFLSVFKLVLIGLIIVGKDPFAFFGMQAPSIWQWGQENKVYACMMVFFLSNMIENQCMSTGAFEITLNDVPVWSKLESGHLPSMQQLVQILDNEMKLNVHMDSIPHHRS
UniProt O95758: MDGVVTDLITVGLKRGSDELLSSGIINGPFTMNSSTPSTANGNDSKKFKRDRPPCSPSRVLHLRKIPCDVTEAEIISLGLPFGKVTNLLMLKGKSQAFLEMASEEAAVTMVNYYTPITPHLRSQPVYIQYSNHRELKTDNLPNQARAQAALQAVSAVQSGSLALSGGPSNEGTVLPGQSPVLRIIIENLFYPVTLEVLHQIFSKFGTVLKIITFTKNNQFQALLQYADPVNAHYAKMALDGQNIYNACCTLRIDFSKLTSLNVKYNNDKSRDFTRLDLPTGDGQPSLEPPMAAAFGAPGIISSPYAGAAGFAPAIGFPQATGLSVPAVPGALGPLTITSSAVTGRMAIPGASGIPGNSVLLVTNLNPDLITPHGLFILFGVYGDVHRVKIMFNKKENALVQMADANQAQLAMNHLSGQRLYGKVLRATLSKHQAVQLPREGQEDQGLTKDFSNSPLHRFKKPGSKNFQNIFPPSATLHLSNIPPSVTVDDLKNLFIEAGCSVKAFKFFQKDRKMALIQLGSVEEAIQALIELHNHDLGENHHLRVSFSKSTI
UniProt Q9NRG7: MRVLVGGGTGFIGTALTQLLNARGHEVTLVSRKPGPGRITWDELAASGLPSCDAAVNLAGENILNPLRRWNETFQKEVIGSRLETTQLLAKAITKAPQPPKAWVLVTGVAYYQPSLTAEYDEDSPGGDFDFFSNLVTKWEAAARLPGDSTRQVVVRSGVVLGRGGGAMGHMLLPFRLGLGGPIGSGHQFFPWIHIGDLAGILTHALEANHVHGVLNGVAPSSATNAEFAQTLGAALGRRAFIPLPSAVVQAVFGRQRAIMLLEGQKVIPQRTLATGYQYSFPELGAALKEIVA
UniProt Q96ER3: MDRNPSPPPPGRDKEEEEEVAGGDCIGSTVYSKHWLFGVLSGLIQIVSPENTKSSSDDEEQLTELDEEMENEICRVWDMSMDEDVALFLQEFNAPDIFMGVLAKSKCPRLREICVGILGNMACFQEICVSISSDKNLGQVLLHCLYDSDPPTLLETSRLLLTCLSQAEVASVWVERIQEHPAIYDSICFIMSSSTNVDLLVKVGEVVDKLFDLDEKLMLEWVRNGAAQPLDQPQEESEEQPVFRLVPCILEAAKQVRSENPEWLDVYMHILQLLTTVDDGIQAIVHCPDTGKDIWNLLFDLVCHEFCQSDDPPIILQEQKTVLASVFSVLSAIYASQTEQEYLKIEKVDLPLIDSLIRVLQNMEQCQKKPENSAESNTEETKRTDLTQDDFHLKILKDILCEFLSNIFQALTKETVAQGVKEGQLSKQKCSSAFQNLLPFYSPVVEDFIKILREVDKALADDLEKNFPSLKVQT
UniProt P21912: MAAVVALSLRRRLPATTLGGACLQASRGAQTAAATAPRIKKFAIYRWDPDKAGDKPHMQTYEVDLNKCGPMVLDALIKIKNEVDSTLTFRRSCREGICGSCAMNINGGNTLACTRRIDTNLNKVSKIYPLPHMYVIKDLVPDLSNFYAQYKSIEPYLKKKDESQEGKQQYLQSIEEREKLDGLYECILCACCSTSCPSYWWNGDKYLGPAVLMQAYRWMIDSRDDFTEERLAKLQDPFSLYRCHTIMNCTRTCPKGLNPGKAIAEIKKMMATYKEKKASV
UniProt Q6NW29: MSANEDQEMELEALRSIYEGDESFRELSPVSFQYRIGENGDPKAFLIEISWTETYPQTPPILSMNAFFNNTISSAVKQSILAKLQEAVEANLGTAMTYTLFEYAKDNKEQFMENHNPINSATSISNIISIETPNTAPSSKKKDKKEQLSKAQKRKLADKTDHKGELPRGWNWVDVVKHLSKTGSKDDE

Compound in the assay: COc1ccc(Cn2ccc3cc(C)c(C(=O)NO)cc32)cc1
Description: dose-dependent thermal stabilisation call (2D-TPP, DLPTP, 10% FDR) (binary (1 = stabilised)); higher = stabilised by the compound. The note with it: system: HL-60 intact cells; concentration range 0.04-10 µM. Here is the method: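 2D thermal proteome profiling in intact HL-60 cells treated with BRD-3811 (0, 0.04, 0.29, 2, 10 uM) for 90 min at 37 C, then heated 3 min at one of 12 temperatures (42-63.9 C). Soluble protein was quantified by TMT10 MS. The value is the DLPTP call of the paper: dose-dependent thermal stabilisation over all temperatures at 10% FDR (F-test of a dose-response against a flat model); one experiment, one call per tested protein.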
On to SCPEP1 (UniProt Q9HB40), for which the “dose-dependent thermal stabilisation call” value was inactive: 0.

Regarding RRAGC (UniProt Q9HB90), the “dose-dependent thermal stabilisation call” value was inactive: 0.

With RTN2 (UniProt O75298), the “dose-dependent thermal stabilisation call” value is inactive: 0.

Consider SEPN1 (UniProt Q9NZV5), for which the “dose-dependent thermal stabilisation call” value is inactive: 0.

RRP7A (UniProt Q9Y3A4): the “dose-dependent thermal stabilisation call” value is inactive: 0.

On to RPS23 (UniProt P62266), for which the “dose-dependent thermal stabilisation call” value is inactive: 0.

For SC4MOL (UniProt Q15800), the “dose-dependent thermal stabilisation call” value is inactive: 0.

Take RNF24 (UniProt Q9Y225): the “dose-dependent thermal stabilisation call” value is inactive: 0.

For RRS1 (UniProt Q15050), the “dose-dependent thermal stabilisation call” value was inactive: 0.

As to RNH1 (UniProt P13489), the “dose-dependent thermal stabilisation call” value is inactive: 0.

Consider SASS6 (UniProt Q6UVJ0), for which the “dose-dependent thermal stabilisation call” value is inactive: 0.

As to RPS6 (UniProt P62753), the “dose-dependent thermal stabilisation call” value is inactive: 0.

With RWDD2B (UniProt P57060), the “dose-dependent thermal stabilisation call” value is inactive: 0.

With RUVBL1 (UniProt Q9Y265), the “dose-dependent thermal stabilisation call” value is inactive: 0.

As for S100A11 (UniProt P31949), the “dose-dependent thermal stabilisation call” value is active: 1.

For the target RNF34 (UniProt Q969K3), the “dose-dependent thermal stabilisation call” value is inactive: 0.

As to RNMTL1 (UniProt Q9HC36), the “dose-dependent thermal stabilisation call” value is inactive: 0.

As for RRP15 (UniProt Q9Y3B9), the “dose-dependent thermal stabilisation call” value was inactive: 0.

As to SDCCAG1 (UniProt O60524), the “dose-dependent thermal stabilisation call” value is inactive: 0.

As for SEC24C (UniProt P53992), the “dose-dependent thermal stabilisation call” value is inactive: 0.

For the target RPRD1A (UniProt Q96P16), the “dose-dependent thermal stabilisation call” value is inactive: 0.

Regarding SELT (UniProt P62341), the “dose-dependent thermal stabilisation call” value was inactive: 0.

Take SCAP (UniProt Q12770): the “dose-dependent thermal stabilisation call” value is inactive: 0.

As for SASH3 (UniProt O75995), the “dose-dependent thermal stabilisation call” value is inactive: 0.

For the target ROD1 (UniProt O95758), the “dose-dependent thermal stabilisation call” value was inactive: 0.

Consider SDR39U1 (UniProt Q9NRG7), for which the “dose-dependent thermal stabilisation call” value was inactive: 0.

As for RPS6KB1 (UniProt P23443), the “dose-dependent thermal stabilisation call” value was inactive: 0.

Turning to RP11-529I10 4, the “dose-dependent thermal stabilisation call” value was inactive: 0.

For SAAL1 (UniProt Q96ER3), the “dose-dependent thermal stabilisation call” value was inactive: 0.

Consider RSRC1 (UniProt Q96IZ7), for which the “dose-dependent thermal stabilisation call” value is inactive: 0.

Consider SDHB (UniProt P21912), for which the “dose-dependent thermal stabilisation call” value is inactive: 0.

Turning to RP5-1022P6 2, the “dose-dependent thermal stabilisation call” value was inactive: 0.

On to RNF31 (UniProt Q96EP0), for which the “dose-dependent thermal stabilisation call” value is inactive: 0.

For RWDD4A (UniProt Q6NW29), the “dose-dependent thermal stabilisation call” value was inactive: 0.

For RPL10 (UniProt P27635), the “dose-dependent thermal stabilisation call” value is inactive: 0.

Turning to SCAMP2 (UniProt O15127), the “dose-dependent thermal stabilisation call” value was inactive: 0.

(Values after the supplement of paper PMC7666118.)
